Assay results as given in article doi:10.1101/2020.04.16.044081.
These are yes or no findings as the source states them, for the method shown. In cells and extracts the contact can be indirect. Some binding calls cover weakened binding; strength is not graded here. One block for each substance: values may come before it.

Sequences of proteins named here, by UniProt entry; tags and fusion partners are left off. A change or cut given only in a name is not applied to a line headed by its entry. Residues count along the entry.
UniProt P49815: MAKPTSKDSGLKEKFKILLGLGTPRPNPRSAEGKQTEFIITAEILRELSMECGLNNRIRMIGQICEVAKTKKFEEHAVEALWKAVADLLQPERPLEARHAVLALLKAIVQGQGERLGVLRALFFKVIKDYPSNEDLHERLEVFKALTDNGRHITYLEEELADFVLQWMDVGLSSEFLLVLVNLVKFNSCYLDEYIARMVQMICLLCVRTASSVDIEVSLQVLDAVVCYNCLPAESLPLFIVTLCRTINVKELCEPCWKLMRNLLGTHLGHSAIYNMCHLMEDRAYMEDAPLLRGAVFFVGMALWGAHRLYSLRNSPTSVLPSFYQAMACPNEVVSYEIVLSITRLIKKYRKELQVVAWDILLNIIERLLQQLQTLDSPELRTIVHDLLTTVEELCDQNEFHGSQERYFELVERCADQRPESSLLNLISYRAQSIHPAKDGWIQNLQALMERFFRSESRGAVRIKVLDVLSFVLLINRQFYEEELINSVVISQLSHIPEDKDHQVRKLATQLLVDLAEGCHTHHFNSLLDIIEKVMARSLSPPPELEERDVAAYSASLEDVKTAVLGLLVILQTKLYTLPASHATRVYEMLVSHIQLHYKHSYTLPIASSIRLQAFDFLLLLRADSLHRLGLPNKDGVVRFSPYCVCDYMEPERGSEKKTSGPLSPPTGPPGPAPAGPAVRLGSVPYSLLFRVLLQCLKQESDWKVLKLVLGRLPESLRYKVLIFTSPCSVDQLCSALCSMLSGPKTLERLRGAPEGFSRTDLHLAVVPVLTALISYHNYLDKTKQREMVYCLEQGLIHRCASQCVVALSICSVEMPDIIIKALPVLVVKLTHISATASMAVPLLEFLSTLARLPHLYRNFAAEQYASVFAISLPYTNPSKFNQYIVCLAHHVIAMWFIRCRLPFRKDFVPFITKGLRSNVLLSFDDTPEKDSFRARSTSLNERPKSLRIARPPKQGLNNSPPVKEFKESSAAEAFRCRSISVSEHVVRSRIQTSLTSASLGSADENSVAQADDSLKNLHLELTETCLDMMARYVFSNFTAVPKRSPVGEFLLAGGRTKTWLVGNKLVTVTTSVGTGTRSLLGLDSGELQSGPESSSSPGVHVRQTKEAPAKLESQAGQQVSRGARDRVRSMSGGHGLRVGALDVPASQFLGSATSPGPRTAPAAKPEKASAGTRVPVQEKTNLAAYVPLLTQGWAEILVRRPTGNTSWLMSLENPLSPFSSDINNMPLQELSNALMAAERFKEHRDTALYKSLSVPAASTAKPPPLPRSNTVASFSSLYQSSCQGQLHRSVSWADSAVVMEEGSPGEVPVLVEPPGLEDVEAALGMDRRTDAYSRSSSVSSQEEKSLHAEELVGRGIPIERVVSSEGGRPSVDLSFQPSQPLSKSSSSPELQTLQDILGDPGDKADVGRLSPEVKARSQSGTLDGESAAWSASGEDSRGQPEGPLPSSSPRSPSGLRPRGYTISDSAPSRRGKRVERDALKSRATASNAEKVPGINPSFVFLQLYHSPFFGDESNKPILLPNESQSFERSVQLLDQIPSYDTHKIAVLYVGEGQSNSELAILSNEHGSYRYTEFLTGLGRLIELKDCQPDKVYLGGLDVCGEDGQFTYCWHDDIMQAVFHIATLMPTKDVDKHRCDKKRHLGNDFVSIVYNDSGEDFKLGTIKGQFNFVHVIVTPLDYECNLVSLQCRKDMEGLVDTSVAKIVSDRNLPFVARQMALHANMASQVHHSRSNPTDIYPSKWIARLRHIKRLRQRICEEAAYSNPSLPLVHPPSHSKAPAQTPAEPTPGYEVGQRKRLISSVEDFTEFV
UniProt P13473, residues 29-410: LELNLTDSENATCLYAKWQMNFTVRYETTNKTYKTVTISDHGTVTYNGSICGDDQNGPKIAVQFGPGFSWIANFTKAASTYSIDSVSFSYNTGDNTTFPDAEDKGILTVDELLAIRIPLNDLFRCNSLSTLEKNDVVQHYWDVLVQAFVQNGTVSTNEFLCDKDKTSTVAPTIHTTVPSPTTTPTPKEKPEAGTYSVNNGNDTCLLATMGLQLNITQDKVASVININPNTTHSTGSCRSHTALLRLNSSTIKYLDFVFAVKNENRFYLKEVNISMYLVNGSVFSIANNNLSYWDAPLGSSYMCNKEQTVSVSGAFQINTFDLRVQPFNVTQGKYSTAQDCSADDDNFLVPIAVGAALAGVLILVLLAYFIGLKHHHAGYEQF
UniProt Q13283: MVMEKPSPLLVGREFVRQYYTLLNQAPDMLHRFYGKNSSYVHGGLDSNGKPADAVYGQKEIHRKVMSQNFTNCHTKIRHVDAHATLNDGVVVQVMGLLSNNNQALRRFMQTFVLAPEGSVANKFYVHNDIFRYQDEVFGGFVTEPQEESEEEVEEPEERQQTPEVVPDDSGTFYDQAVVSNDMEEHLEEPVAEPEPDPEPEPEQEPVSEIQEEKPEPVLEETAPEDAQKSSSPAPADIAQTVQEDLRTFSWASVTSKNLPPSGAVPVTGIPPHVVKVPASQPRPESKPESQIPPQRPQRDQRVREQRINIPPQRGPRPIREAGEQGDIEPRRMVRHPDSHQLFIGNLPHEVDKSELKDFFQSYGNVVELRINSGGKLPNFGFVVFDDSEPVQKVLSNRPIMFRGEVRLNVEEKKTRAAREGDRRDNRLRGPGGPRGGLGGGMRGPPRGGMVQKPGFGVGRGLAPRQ
UniProt P49816: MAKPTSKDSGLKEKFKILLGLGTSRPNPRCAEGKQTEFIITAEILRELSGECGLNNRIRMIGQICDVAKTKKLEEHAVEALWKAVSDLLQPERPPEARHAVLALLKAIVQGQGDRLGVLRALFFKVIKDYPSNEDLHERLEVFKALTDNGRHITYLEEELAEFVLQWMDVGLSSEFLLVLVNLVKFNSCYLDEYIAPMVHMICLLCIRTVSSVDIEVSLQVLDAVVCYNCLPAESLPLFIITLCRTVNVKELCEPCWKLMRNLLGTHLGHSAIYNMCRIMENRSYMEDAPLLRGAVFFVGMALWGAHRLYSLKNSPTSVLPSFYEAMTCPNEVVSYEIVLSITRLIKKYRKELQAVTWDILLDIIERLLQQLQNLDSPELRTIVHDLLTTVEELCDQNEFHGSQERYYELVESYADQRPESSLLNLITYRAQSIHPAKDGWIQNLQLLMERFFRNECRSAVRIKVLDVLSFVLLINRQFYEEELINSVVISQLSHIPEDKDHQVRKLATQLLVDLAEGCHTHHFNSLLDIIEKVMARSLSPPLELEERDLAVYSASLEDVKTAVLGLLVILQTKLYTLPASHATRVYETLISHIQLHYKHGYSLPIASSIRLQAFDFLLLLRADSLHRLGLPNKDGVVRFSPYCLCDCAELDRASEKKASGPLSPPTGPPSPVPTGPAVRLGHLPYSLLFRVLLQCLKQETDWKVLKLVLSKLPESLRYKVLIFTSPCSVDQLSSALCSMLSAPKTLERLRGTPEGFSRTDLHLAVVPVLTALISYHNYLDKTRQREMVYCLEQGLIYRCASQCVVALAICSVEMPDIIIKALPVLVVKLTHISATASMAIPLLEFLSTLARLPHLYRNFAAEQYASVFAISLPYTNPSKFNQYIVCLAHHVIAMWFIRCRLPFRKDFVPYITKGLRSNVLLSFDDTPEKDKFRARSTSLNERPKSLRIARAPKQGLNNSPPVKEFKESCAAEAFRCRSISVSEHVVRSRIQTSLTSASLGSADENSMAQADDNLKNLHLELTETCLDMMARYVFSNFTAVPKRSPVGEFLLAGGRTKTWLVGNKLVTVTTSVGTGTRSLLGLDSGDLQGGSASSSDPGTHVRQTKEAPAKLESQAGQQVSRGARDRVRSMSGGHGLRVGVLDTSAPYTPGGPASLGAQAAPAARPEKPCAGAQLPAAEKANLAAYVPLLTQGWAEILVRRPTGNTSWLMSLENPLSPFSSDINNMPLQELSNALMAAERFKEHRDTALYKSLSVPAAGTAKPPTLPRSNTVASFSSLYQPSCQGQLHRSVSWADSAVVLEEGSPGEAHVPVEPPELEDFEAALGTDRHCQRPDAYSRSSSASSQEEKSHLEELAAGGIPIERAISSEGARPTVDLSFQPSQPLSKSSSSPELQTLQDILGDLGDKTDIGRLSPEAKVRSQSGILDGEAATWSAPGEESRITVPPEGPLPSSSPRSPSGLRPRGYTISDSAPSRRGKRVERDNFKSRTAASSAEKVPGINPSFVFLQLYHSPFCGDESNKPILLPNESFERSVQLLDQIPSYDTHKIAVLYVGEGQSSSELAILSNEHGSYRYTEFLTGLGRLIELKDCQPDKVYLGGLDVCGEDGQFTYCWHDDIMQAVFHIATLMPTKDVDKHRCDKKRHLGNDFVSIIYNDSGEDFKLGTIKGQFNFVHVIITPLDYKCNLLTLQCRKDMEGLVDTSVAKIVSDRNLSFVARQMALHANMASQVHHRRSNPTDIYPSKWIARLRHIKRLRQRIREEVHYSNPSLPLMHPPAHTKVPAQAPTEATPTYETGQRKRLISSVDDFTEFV

What was measured:
[1] = target: TSC2-GFP (full length) (human) (UniProt P49815); assay: co-IP
[2] = target: N-terminal mLumin fragment fused to LAMP2 (pGW-HA-LN151-LAMP2) (human) (UniProt P13473); assay: split reporter
[3] = target: N-terminal mLumin fragment fused to TSC2 (pGW-HA-LN151-TSC2) (human) (UniProt P49815); assay: split reporter
[4] = target: T1, TSC1, endogenous, rat brain (rat (endogenous in brain tissue)) (UniProt Q9Z136); assay: co-IP
T1 sequence: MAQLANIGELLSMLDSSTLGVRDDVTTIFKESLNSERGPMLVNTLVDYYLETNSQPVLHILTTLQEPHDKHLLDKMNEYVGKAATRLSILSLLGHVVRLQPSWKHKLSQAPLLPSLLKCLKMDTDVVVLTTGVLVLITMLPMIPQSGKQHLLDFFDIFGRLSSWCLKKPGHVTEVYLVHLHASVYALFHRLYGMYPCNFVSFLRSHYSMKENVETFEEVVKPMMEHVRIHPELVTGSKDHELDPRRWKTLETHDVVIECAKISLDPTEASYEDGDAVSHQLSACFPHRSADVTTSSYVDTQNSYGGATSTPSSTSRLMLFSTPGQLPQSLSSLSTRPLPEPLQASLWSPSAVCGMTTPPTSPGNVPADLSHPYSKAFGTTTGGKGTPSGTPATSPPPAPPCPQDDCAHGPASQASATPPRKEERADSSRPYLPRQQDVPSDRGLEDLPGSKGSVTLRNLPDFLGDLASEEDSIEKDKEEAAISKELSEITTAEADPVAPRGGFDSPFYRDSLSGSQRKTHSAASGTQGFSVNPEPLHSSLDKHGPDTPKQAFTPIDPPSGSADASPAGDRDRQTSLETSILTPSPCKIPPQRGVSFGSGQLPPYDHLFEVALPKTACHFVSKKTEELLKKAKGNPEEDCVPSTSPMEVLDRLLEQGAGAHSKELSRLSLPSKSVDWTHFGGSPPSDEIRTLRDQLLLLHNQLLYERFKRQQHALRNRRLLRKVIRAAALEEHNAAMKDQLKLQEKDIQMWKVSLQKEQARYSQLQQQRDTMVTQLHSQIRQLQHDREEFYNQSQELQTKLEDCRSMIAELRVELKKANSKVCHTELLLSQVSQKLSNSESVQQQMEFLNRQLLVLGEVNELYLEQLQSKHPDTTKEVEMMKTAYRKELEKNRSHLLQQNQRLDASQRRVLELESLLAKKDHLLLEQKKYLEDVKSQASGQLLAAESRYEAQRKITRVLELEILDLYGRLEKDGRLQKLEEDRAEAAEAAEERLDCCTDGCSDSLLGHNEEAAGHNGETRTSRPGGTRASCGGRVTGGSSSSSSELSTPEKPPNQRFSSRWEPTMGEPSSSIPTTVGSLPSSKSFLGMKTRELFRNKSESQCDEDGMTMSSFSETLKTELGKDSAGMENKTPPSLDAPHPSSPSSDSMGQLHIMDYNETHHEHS

[5] = target: TSC2 (tuberin), endogenous human (human (endogenous in MCF-7, MDA-MB-231, HEK293T)) (UniProt P49815); assay: co-IP
[6] = target: TSC2 (tuberin), endogenous human (human (endogenous in MCF-7, MDA-MB-231, HEK293T)) (UniProt P49815); assay: co-IP; remark: listed apart in the source
[7] = target: TSC2 (tuberin), endogenous human (human (endogenous in MCF-7, MDA-MB-231, HEK293T)) (UniProt P49815); assay: proximity ligation

- binding [1]: no binding
Substance: G3BP1_(1-182)-MYC (from UniProt Q13283 1-182) (domain or fragment)

- binding [1]: binds weakly
Substance: G3BP1_(183-332)-MYC (from UniProt Q13283 183-332) (domain or fragment)

- binding [2]: binds
- binding [3]: binds
Substance: G3BP1 fused to a C-terminal mLumin fragment (pGW-MYC-LC151-G3BP1) (from UniProt Q13283 1-466)

- binding [1]: binds
Substance: full length G3BP1_(1-466)-MYC (from UniProt Q13283 1-466)

- binding [4]: binds
Substance: TSC2, endogenous, rat brain (from UniProt P49816 1-1809)

- binding [1]: binds
Substance: G3BP1_(333-466)-MYC (from UniProt Q13283 333-466) (domain or fragment)

- binding [5]: binds
- binding [6]: binds
- binding [7]: binds
Substance: Ras GTPase-activating protein-binding protein 1 (G3BP1), endogenous human (from UniProt Q13283 1-466)
